This note sets out measurements from the supplement of paper PMC12067093, “Discovery and optimisation of a covalent ligand for TRIM25 and its application to targeted protein ubiquitination” (Chemical Science, 2025).

The chains behind the UniProt entries cited, without tags or fusion partners. Where a name states a change or a piece, a line headed by the entry shows the natural chain unless it says otherwise.
UniProt P08962, whole entry: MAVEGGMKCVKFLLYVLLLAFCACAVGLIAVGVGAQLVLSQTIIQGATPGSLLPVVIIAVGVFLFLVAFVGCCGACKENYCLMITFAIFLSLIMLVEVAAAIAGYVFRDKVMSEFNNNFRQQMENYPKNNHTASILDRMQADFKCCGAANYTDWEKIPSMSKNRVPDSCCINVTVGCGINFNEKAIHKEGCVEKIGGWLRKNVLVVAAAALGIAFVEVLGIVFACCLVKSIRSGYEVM
UniProt Q00536: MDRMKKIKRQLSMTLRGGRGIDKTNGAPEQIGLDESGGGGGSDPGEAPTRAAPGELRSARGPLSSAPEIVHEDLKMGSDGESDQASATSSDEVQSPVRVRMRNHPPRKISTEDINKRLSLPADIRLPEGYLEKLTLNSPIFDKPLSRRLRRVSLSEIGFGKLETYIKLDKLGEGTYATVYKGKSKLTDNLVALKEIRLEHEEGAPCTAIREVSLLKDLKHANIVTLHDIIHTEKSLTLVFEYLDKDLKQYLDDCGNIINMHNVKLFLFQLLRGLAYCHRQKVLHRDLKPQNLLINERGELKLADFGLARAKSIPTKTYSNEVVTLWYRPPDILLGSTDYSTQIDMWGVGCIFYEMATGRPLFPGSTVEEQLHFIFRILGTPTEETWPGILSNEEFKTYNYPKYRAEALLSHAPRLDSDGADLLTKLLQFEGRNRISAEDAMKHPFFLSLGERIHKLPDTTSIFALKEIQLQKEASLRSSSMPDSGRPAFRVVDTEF
UniProt Q9BV73: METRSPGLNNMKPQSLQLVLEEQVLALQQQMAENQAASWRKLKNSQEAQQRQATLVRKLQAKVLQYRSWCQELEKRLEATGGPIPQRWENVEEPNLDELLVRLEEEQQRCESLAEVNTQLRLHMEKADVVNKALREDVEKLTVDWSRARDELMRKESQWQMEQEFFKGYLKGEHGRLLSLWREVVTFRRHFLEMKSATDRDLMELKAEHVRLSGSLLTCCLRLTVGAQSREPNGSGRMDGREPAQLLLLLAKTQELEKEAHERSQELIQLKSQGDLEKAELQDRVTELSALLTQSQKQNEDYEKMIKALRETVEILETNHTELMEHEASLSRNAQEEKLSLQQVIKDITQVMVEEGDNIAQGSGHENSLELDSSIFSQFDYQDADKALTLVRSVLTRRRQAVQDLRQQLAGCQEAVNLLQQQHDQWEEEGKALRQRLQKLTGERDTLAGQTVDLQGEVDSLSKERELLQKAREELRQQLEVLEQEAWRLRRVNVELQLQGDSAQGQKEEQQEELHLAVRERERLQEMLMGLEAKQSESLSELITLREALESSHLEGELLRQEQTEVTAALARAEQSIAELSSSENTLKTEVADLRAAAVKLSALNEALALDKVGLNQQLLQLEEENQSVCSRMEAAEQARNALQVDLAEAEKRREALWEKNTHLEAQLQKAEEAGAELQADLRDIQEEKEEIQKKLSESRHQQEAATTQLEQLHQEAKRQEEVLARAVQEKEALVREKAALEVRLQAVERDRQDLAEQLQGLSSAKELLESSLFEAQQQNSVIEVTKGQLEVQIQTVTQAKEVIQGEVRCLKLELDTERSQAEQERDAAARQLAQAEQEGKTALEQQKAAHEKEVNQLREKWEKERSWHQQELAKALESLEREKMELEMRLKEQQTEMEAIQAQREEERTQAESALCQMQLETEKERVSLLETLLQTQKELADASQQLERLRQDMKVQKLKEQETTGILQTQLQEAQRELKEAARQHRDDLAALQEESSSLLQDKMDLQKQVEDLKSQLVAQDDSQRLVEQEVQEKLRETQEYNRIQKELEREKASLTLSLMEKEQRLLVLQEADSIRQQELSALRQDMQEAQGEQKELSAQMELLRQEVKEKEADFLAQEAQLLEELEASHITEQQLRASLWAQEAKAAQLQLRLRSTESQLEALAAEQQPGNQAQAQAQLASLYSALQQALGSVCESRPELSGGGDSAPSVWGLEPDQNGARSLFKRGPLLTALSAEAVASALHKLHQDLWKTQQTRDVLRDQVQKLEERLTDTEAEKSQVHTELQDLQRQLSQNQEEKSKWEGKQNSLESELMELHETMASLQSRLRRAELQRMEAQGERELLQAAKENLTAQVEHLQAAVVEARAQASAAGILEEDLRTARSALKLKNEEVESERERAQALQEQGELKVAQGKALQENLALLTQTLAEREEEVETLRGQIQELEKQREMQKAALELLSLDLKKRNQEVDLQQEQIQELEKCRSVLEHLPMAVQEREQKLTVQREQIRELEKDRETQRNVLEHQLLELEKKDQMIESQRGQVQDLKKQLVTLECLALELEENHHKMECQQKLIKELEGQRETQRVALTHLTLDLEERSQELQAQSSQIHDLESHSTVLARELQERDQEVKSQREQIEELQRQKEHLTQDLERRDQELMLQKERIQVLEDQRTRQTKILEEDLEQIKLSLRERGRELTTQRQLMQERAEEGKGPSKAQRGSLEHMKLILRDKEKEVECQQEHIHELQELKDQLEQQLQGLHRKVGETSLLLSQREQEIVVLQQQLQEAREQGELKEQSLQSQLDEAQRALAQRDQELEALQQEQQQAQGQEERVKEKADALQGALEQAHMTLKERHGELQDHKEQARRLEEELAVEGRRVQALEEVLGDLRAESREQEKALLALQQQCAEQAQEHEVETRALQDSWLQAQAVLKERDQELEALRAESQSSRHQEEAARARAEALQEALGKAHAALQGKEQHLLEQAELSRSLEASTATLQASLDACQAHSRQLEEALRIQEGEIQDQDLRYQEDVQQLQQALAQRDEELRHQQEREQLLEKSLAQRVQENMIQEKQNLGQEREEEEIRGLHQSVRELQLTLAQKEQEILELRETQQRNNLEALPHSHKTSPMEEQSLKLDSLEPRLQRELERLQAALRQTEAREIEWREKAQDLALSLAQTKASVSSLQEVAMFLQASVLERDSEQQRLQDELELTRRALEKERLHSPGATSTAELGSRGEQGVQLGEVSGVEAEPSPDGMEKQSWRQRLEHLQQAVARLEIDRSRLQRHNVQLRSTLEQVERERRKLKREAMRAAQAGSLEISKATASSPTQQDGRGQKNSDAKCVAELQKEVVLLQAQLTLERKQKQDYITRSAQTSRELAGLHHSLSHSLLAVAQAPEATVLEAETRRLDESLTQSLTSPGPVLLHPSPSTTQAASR
UniProt O75419: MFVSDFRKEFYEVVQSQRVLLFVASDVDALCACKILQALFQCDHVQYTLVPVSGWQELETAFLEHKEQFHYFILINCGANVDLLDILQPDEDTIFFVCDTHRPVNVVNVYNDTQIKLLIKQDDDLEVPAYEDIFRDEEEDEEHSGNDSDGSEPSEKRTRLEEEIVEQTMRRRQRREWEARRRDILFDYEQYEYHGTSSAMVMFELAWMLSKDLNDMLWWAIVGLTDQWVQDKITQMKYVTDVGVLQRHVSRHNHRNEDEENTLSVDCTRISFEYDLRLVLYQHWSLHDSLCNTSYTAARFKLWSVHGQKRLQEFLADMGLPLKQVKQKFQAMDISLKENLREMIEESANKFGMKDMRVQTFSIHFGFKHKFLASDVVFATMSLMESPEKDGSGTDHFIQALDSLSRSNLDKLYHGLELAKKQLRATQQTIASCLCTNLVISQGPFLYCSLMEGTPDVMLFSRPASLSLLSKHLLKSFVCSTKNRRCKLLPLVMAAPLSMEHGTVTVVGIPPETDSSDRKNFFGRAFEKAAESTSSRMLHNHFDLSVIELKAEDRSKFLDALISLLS
UniProt Q92879: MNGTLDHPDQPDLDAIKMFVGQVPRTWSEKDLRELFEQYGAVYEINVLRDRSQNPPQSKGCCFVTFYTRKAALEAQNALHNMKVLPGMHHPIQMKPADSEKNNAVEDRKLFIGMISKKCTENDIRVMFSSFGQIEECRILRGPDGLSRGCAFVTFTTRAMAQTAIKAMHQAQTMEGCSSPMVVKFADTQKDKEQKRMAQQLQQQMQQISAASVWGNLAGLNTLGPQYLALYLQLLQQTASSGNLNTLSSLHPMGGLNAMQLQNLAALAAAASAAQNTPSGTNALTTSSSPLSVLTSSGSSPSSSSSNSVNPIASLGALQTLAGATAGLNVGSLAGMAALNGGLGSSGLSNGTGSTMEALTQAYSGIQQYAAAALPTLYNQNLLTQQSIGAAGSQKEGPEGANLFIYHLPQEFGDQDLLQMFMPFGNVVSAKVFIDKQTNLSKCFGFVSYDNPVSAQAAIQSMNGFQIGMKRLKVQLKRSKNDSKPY
UniProt Q8N960: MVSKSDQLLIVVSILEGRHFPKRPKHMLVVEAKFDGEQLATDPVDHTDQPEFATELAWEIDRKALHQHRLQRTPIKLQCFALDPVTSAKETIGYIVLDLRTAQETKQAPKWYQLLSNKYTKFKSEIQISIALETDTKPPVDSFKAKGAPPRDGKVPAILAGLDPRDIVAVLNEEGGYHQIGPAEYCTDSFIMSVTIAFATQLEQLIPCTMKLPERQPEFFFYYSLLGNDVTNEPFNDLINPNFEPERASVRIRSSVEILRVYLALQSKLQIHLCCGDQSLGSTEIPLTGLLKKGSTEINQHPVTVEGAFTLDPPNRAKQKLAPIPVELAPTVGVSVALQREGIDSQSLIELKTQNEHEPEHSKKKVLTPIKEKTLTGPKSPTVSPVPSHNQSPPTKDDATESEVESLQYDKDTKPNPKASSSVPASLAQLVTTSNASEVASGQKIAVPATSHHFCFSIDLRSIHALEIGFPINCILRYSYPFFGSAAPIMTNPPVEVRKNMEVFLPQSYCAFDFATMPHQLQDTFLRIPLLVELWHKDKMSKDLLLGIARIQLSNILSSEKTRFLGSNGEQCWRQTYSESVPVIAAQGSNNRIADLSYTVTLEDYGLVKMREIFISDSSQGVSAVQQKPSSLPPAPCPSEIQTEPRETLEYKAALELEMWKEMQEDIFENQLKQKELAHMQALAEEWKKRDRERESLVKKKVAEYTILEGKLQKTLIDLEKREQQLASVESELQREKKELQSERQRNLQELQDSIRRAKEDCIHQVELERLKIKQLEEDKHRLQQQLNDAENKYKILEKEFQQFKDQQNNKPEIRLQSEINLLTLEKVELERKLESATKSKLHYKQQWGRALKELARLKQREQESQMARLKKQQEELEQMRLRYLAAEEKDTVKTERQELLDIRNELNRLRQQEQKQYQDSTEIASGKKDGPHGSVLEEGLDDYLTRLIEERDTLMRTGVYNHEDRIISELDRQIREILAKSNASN
UniProt Q7L3B6: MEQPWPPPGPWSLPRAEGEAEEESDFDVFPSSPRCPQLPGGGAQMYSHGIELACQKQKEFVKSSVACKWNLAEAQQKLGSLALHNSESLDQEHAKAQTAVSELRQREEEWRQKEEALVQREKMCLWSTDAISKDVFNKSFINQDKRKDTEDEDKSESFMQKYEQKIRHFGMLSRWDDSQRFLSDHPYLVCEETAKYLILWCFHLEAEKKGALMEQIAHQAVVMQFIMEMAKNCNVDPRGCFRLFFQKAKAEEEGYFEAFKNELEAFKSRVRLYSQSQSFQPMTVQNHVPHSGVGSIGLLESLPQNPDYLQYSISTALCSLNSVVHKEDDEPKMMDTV

Some of the results follow.

Compound in the experiment: CC1Cc2ccccc2N1C(=O)C1CCCN(C1)C(=O)CCl (mixture of isomers) [TRIM25 ligand 11 (diastereomer mixture)]
Nature of the experiment: probe-labelled cysteine peptide fold change vs DMSO (competition) (log2 fold change); higher = less target engagement (more negative = stronger competition). Conditions: THP-1, incubation time: 4 h.
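Further: competitive chemoproteomic profiling in live THP-1 cells with an iodoacetamide desthiobiotin (IA-DTB) probe, comparing probe-labelled peptide intensities in compound-treated cells against DMSO-treated controls.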

As to “CCT8_P50990_347_LTPPVLEEMGHCDSVYLSEVGDTQVVVFKHEK (UniProt P50990)”, the “probe-labelled cysteine peptide fold change” value was -0.314 (10 µM) and -0.162 (50 µM).

Turning to “CD63_P08962_177_NRVPDSCCINVTVGCGINFNEK (UniProt P08962)”, the “probe-labelled cysteine peptide fold change” value runs as follows: (10 µM) 0.13; (50 µM) -0.00794.

“CDK16_Q00536_206_EIRLEHEEGAPCTAIR (UniProt Q00536)”: the “probe-labelled cysteine peptide fold change” value by setting is: (10 µM) 0.0245; (50 µM) -0.016.

Consider “CEP250_Q9BV73_630_VGLNQQLLQLEEENQSVCSR (UniProt Q9BV73)”, for which the “probe-labelled cysteine peptide fold change” value was -0.268 (10 µM) and -0.047 (50 µM).

Consider “CDC45_O75419_31_VLLFVASDVDALCACK (UniProt O75419)”, for which the “probe-labelled cysteine peptide fold change” value was found to be 0.219 (10 µM) and 0.304 (50 µM).

For “CELF1_Q92879_137_VMFSSFGQIEECR (UniProt Q92879)”, the “probe-labelled cysteine peptide fold change” value was 0.0585 (10 µM) and 0.0849 (50 µM).

As for “CEP120_Q8N960_762_AKEDCIHQVELER (UniProt Q8N960)”, the “probe-labelled cysteine peptide fold change” value (10 µM) was -0.0766 and the “probe-labelled cysteine peptide fold change” value (50 µM) is 0.116.

As for “CDC37L1_Q7L3B6_190_FLSDHPYLVCEETAK (UniProt Q7L3B6)”, the “probe-labelled cysteine peptide fold change” value is, setting by setting: (10 µM) 0.0895; (50 µM) 0.0315.
